Measured values: PMC3468582
No constants are given. Whether binding was seen depends on the method and setting. Some entries that bind do so weakly or less than the wild type.

By UniProt entry, the sequences of proteins in these tests, tags left out.
UniProt P12367: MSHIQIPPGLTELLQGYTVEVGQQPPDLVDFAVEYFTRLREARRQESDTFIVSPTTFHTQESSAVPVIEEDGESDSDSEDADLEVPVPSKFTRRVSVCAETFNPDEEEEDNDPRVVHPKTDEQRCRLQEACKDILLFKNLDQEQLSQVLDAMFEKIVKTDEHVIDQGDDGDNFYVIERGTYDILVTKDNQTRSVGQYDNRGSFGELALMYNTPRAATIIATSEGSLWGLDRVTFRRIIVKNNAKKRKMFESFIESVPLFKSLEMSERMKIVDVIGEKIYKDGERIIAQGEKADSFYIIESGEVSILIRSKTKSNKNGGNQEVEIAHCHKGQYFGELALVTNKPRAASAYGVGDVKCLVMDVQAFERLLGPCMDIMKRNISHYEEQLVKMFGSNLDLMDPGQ

Biological target: recombinant RIIα (type II alpha regulatory subunit of protein kinase A) (UniProt P12367)
Assay: T7 phage display screening; 96-well dish coated with recombinant RIIα; clones of a T7-select phage display library of human heart cDNA screened; bound clones amplified by PCR and sequenced; only the target purified

B1: Chd8 peptide fragments isolated by T7 phage display (391–545aa of the Chd8-L1 isoform) (domain or fragment, UniProt Q9HCK8-1 391-545)
chain: GQRLSVPVKVVLQPQAGSSQGASSGLSVVKVLSASEVAALSSPASSAPHSGGKTGMEENRRLEHQKKQEKANRIVAEAIARARARGEQNIPRVLNEDELPSVRPEEEGEKKRRKKSAGERLKEEKPKKSKTSGASKTKGKSKLNTITPVVGKKRK
Q: With B1 as the binder, how does the binding read?
A: binds
